Results from article doi:10.1101/2025.03.09.642136.
No constants are given. Whether binding was seen depends on the method and setting. Binding seen in cells or lysates may run through a third protein. Some results given as binding are weak or reduced against the parent protein; the word gives no strength.

Sequences of proteins named here, by UniProt entry; tags and fusion partners are left off.
UniProt P30559: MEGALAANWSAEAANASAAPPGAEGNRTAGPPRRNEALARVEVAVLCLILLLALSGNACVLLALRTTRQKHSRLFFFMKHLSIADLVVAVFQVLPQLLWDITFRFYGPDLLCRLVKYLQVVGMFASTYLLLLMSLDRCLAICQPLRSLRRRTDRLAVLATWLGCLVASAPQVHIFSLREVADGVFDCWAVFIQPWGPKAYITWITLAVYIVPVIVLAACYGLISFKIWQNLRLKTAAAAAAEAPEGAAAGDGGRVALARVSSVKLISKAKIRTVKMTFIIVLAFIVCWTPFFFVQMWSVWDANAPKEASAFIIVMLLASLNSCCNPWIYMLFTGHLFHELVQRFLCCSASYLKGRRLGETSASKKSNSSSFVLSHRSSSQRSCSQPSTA

Target: FLAG-tagged oxytocin receptor (OTR-FLAG) (UniProt P30559)
Test: co-IP

Substance: HER2 (human epidermal growth factor receptor 2) (from UniProt P04626 23-1255)
- binding: binds
